From PMC13378530 come the findings set out here.

The data set concerns the target p53 DBD (UniProt P04637). Kind of data set: EMSA. The conditions noted are these: 400 nM p53 DBD, 5 nM probe, no U14; 50 mM Tris-HCl pH 7.5, 10 mM MgCl2, 1 mM ATP, 25 ug/mL BSA, 10% glycerol, 10 mM DTT, 200 mM KCl; p53+U14 30 min at 4 C, then probe 90 min on ice; recombinant protein; residues 94-312; label: 5'-FAM on forward strand. (In general: In EMSA bound probe runs differently from free probe, usually more slowly.)

Construct, isoform or probe ends are uncertain for at least one entry.

“CGGGCATGTCCGGGCATGTCCTG (double strand) [p53RE probe]”: the binding result is “binds”.
